# ± gives the standard deviation of the averaged measurements. Most values lie at the level of the controls, where differences are scatter.
# Tests used:
# Experiment in all cases: level (log10 ratio to DMSO vehicle control); higher = higher biomarker level / cell amount than vehicle control
# [1] = compound: C=C(C)C(=O)OCCC(F)(F)C(F)(F)C(F)(F)C(F)(F)C(F)(F)C(F)(F)F [6:2 Fluorotelomer methacrylate] (in DMSO); settings: 2200 nM
# Procedure: (§1)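 BioMAP Diversity Plus panel of 12 human primary cell co-culture systems (3C, 4H, LPS, SAg, BT, BF4T, BE3C, CASM3C, HDF3CGF, KF3CT, MyoF, Mphg). Compounds were added 1 h before stimulation and left for 24 h (MyoF 48 h; BT 72 h for soluble read-outs or 6 d for IgG). Biomarkers were read by ELISA, cytotoxicity by SRB, PBMC viability and proliferation by Alamar Blue. Each well value was divided by the mean of 8 DMSO control wells on the same plate and log10 transformed; duplicate blinded samples were tested at 4 concentrations.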
# [2] = compound: CNS(=O)(=O)C(F)(F)C(F)(F)C(F)(F)C(F)(F)C(F)(F)C(F)(F)C(F)(F)C(F)(F)F [N-Methylperfluorooctanesulfonamide] (in DMSO); settings: 2200 nM
# Procedure: as §1
# [3] = compound: FC(F)(F)C(F)(F)C(F)(F)C(F)(F)CCI [1H,1H,2H,2H-Perfluorohexyl iodide] (in DMSO); settings: 2200 nM
# Procedure: as §1
# [4] = compound: FC(F)(F)C(F)(F)CNCC(F)(F)C(F)(F)F [Bis(1H,1H-perfluoropropyl)amine] (in DMSO); settings: 2200 nM
# Procedure: as §1
# [5] = compound: FC(F)(F)COC(OCC(F)(F)F)OCC(F)(F)F [tris(Trifluoroethoxy)methane] (in DMSO); settings: 2200 nM
# Procedure: as §1
# Hexafluoroglutaric acid = compound: O=C(O)C(F)(F)C(F)(F)C(F)(F)C(=O)O [Hexafluoroglutaric acid] (in DMSO)
# Procedure: as §1
# Perfluorohexanoic acid = compound: O=C(O)C(F)(F)C(F)(F)C(F)(F)C(F)(F)C(F)(F)F [Perfluorohexanoic acid] (in DMSO)
# Procedure: as §1
# [6] = compound: O=C(O)C(F)(F)C(F)(F)C(F)(F)OC(F)(C(F)(F)F)C(F)(F)F [Perfluoro-4-isopropoxybutanoic acid] (in DMSO); settings: 2200 nM
# Procedure: as §1
# [7] = compound: O=C(O)C(F)(OC(F)(F)C(F)(F)C(F)(F)F)C(F)(F)F [Ammonium perfluoro-2-methyl-3-oxahexanoate] (in Water)
# Procedure: as §1
# [8] = compound: O=C(O)C(F)(OC(F)(F)C(F)(OC(F)(F)C(F)(OC(F)(F)C(F)(F)C(F)(F)F)C(F)(F)F)C(F)(F)F)C(F)(F)F [Perfluoro-(2,5,8-trimethyl-3,6,9-trioxadodecanoic)acid] (in DMSO); settings: 370 nM
# Procedure: as §1
# [9] = compound: O=C(O)CCC(F)(F)C(F)(F)C(F)(F)F [3:3 Fluorotelomer carboxylic acid] (in DMSO); settings: 2200 nM
# Procedure: as §1
# [10] = compound: O=S(=O)(O)C(F)(F)C(F)(F)C(F)(F)C(F)(F)F [Perfluorobutanesulfonic acid] (in DMSO)
# Procedure: as §1
# [11] = compound: OCC(F)(F)C(F)(F)C(F)(F)C(F)(F)C(F)(F)C(F)(F)CO [1H,1H,8H,8H-Perfluorooctane-1,8-diol] (in DMSO); settings: 2200 nM
# Procedure: as §1
# [12] = compound: OCC(F)(F)C(F)(F)C(F)(F)C(F)(F)C(F)(F)C(F)(F)F [6:1 Fluorotelomer alcohol] (in DMSO); settings: 2200 nM
# Procedure: as §1
# [13] = compound: OCC(F)(F)C(F)(F)C(F)(F)C(F)F [1H,1H,5H-Perfluoropentanol] (in DMSO); settings: 2200 nM
# Procedure: as §1
# [14] = compound: OCC(F)(F)OC(F)(F)C(F)(F)OC(F)(F)CO [1H,1H,8H,8H-Perfluoro-3,6-dioxaoctane-1,8-diol] (in DMSO); settings: 2200 nM
# Procedure: as §1
# [15] = compound: OCCCC(F)(F)C(F)(F)C(F)(F)C(F)(F)C(F)(F)C(F)(F)C(F)(F)C(F)(F)F [3-(Perfluorooctyl)propanol] (in DMSO); settings: 2200 nM
# Procedure: as §1
Test System,level (log10) [1],level (log10) [2],level (log10) [3],level (log10) [4],level (log10) [5],level (log10) (Hexafluoroglutaric acid; 2200 nM),level (log10) (Hexafluoroglutaric acid; 6700 nM),level (log10) (Hexafluoroglutaric acid; 20000 nM),level (log10) (Hexafluoroglutaric acid; 60000 nM),level (log10) (Perfluorohexanoic acid; 2200 nM),level (log10) (Perfluorohexanoic acid; 6700 nM),level (log10) (Perfluorohexanoic acid; 20000 nM),level (log10) (Perfluorohexanoic acid; 60000 nM),level (log10) [6],level (log10) ([7]; 2200 nM),level (log10) ([7]; 6700 nM),level (log10) ([7]; 20000 nM),level (log10) ([7]; 60000 nM),level (log10) [8],level (log10) [9],level (log10) ([10]; 2200 nM),level (log10) ([10]; 6700 nM),level (log10) ([10]; 20000 nM),level (log10) ([10]; 60000 nM),level (log10) [11],level (log10) [12],level (log10) [13],level (log10) [14],level (log10) [15]
HDF3CGF:PAI-I,-0.032 ± 0.041,0.0555 ± 0.026,0.0205 ± 0.005,0.012 ± 0.013,-0.01 ± 0.037,0.001 ± 0.0057,-0.0115 ± 0.016,-0.007 ± 0.014,0.0075 ± 0.021,-0.005 ± 0.09,0.0415 ± 0.044,-0.0095 ± 0.021,0.025 ± 0.075,0.0255 ± 0.021,-0.088 ± 0.016,-0.0825 ± 0.052,-0.0995 ± 0.013,-0.051 ± 0.054,0.043 ± 0.057,0.01 ± 0.051,0.0075 ± 0.011,-0.017 ± 0.034,0.007 ± 0.045,-0.0075 ± 0.03,0.0065 ± 0.032,-0.007 ± 0.024,-0.044 ± 0.13,0.013 ± 0.057,-0.0065 ± 0.076
HDF3CGF:Proliferation 72hr,-0.048 ± 0.011,0.02 ± 0.067,-0.021 ± 0.0014,-0.013 ± 0.013,-0.025 ± 0.068,-0.0905 ± 0.044,-0.011 ± 0.059,-0.013 ± 0.028,-0.008 ± 0.05,-0.032 ± 0.082,0.04 ± 0.0014,0.015 ± 0.034,0.0305 ± 0.037,-0.008 ± 0.02,0.046 ± 0.088,0.0575 ± 0.057,0.0635 ± 0.066,-0.0255 ± 0.056,0.0055 ± 0.039,-0.0165 ± 0.081,-0.04 ± 0.016,-0.0045 ± 0.013,-0.0195 ± 0.015,0.0155 ± 0.05,-0.0565 ± 0.044,0.0035 ± 0.033,-0.0215 ± 0.035,-0.026 ± 0.02,0.012 ± 0.073
HDF3CGF:SRB,0.003 ± 0.027,-0.0005 ± 0.0021,-0.0395 ± 0.059,0.0035 ± 0.025,0.013 ± 0.024,-0.0325 ± 0.064,-0.03 ± 0.083,-0.0095 ± 0.097,0.0245 ± 0.12,0.0055 ± 0.0078,0.0135 ± 0.013,0.0305 ± 0.022,-0.0055 ± 0.0092,-0.0345 ± 0.026,0.0045 ± 0.0078,-0.033 ± 0.02,-0.0325 ± 0.0021,-0.0175 ± 0.011,0.038 ± 0.028,-0.025 ± 0.041,0.002 ± 0.011,0.018 ± 0.03,0.023 ± 0.013,0.004 ± 0.033,-0.026 ± 0.038,0.038 ± 0.0099,0.0035 ± 0.05,-0.0395 ± 0.021,-0.013 ± 0.018
HDF3CGF:TIMP-1,0.0235 ± 0.013,0.0315 ± 0.018,0.045 ± 0.023,0.015 ± 0.0042,0 ± 0.027,-0.032 ± 0.038,-0.0385 ± 0.026,-0.02 ± 0.072,-0.045 ± 0.073,0.013 ± 0.0028,-0.0005 ± 0.0078,-0.002 ± 0.016,0.0025 ± 0.015,0.02 ± 0.02,-0.045 ± 0.11,0.025 ± 0.0028,0.014 ± 0.024,-0.0135 ± 0.0064,-0.0015 ± 0.029,-0.0045 ± 0.029,0.0175 ± 0.016,-0.032 ± 0.064,0.0125 ± 0.0078,0.0195 ± 0.011,0.009 ± 0.023,-0.024 ± 0.021,-0.0055 ± 0.0035,0.0055 ± 0.042,0.0105 ± 0.049
HDF3CGF:TIMP-2,-0.022 ± 0.054,-0.0725 ± 0.011,-0.0125 ± 0.00071,-0.008 ± 0.027,-0.0225 ± 0.018,-0.02 ± 0.011,-0.041 ± 0.0014,0.01 ± 0.0028,-0.0345 ± 0.0021,0.004 ± 0.024,0.033 ± 0.0014,0.021 ± 0.017,0.025 ± 0.037,0.007 ± 0.016,0.0005 ± 0.12,0.0405 ± 0.07,0.0435 ± 0.013,-0.0185 ± 0.079,0.012 ± 0.035,-0.0205 ± 0.039,-0.0195 ± 0.049,0.0135 ± 0.037,0.017 ± 0.023,0.031 ± 0.014,-0.002 ± 0.021,-0.0175 ± 0.013,-0.066 ± 0.061,-0.007 ± 0.02,0.024
KF3CT:CCL2/MCP-1,-0.025 ± 0.034,0.0095 ± 0.012,-0.006 ± 0.0028,0.01 ± 0.03,0.0255 ± 0.066,-0.0015 ± 0.028,-0.0255 ± 0.04,-0.0325 ± 0.067,-0.0245 ± 0.0021,-0.0105 ± 0.0078,-0.0155 ± 0.019,-0.0385 ± 0.018,0.001 ± 0.052,0.0045 ± 0.0092,0.115 ± 0.023,0.086 ± 0.0057,0.088 ± 0.023,0.0775 ± 0.018,-0.0255 ± 0.035,0.034 ± 0.073,-0.0085 ± 0.023,-0.032 ± 0.017,-0.0095 ± 0.026,0.0135 ± 0.083,0.0275 ± 0.047,0.01 ± 0.025,0.008 ± 0.0042,0.038 ± 0.042,0.0005 ± 0.054
KF3CT:CD54/ICAM-1,0.0075 ± 0.015,0.018 ± 0.045,0.0095 ± 0.0078,-0.002 ± 0.02,-0.001 ± 0.025,-0.017 ± 0.0071,-0.0045 ± 0.00071,-0.014 ± 0.0057,-0.0015 ± 0.044,-0.002 ± 0.035,0.0055 ± 0.0064,-0.002 ± 0.013,-0.007 ± 0.011,0.009 ± 0.014,0.012 ± 0.0014,0.022 ± 0.0099,0.029 ± 0.0071,0.017 ± 0.0057,0.0145 ± 0.00071,0.002 ± 0.023,0.015 ± 0.028,0.0015 ± 0.029,0.0225 ± 0.012,0.0005 ± 0.00071,-0.001 ± 0.038,0.0005 ± 0.021,0.0235 ± 0.019,0.015 ± 0.014,-0.019 ± 0.038
